Assay results reported in PubChem BioAssay AID1671190 (National Center for Advancing Translational Sciences (NCATS), 2021).
Several values for one entry are separate records, joined by “and”; a condition that tells them apart may be missing. Identical values can stand only once. The whole screen tested about 580,000 compounds, of which about 6,100 (1.1%) were called active. Inconclusive means that the source gave no clear call. Such entries were picked first, then a sample of the others. The call rests on the fitted dose curve; in most records, active means well fitted inhibition curve with a large enough effect; inconclusive means small, poorly fitted or top-dose-only effect, or another doubt; inactive means no such curve, though single readings can be large or run the other way. A potency beside an inconclusive call is a rough fit, not a confirmed value.

Amino acid sequences for entries named in this document (tags omitted). A change or cut given only in a name is not applied to a line headed by its entry.
UniProt P18054: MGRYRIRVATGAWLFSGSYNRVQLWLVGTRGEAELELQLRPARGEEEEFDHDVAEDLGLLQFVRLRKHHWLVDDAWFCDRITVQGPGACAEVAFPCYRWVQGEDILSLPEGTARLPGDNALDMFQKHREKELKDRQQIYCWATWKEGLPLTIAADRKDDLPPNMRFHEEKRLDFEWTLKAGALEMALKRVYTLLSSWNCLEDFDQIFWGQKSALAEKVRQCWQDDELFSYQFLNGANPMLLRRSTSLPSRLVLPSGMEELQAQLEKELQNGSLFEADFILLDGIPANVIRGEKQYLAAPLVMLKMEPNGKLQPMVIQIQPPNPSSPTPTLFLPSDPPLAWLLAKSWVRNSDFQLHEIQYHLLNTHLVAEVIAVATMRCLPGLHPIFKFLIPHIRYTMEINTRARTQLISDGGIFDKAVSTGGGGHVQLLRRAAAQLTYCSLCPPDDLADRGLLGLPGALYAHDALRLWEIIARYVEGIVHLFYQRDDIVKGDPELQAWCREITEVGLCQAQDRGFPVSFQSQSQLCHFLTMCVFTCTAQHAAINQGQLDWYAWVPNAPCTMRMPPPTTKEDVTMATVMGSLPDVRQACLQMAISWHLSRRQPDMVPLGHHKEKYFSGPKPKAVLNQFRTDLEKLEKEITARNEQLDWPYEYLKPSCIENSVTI

molecular target: Polyunsaturated fatty acid lipoxygenase ALOX12 (Homo sapiens) (UniProt P18054); test: Primary qHTS assay for inhibitors of human arachidonate 12S-lipoxygenase (ALOX12): Round 2; conditions: purified 12hLO, xylenol orange hydroperoxide absorbance; activity change, negative = inhibition: at 108 µM (top of the series) unless noted
Summary of the method: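 Hydroperoxide product was detected by ferrous iron/xylenol orange as the 573 to 405 nm absorbance ratio. Arachidonic acid at 40 uM (final) was turned over for 30 min at room temperature by 150 nM human 12hLO, pH 7.0 Hepes buffer, after 15 min compound preincubation.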
On the % scale 0 is the no-effect control and ±100 the full control effect; potency means the concentration at half of the fitted maximal effect.

**Q.** How did the “activity change, negative = inhibition” value turn out when O=C(N/N=C/c1cccnc1)c1ccccc1OCc1ccc(Br)cc1 was run?
**A.** inactive: -5.64%

**Q.** With O=C1CSc2ccc(C(=O)Nc3ccccc3)cc2N1 as the compound, how does the Potency read?
**A.** inconclusive: 126 µM [inhibitor, partial curve, poor fit]

**Q.** Which Potency does the source give for CCOc1ccc(/C=N/Nc2nc(C)cs2)c(O)c1 here?
**A.** inconclusive: 12.6 µM [inhibitor, full curve]

**Q.** How did the Potency turn out when CCCCCC(=O)Nc1ccc(-c2csc(NC)n2)cc1 was run?
**A.** inconclusive: 20 µM [inhibitor, partial curve]

**Q.** Which Potency does the source give for CCc1nc2c(OCc3ccc(F)c(F)c3)cccn2c1N(C)C(=O)C1CC1 here?
**A.** inconclusive: 35.5 µM [inhibitor, partial curve, poor fit]

**Q.** How did the Potency turn out when CC1CCCCC1Nc1ncnc2c1CN(C1CCCNCC1)C(=O)CN2C (configuration not stated) was run?
**A.** inconclusive: 7.08 µM [inhibitor, full curve, poor fit]

**Q.** For CN(Cc1ccccc1)C(=O)CSc1nnc(COc2ccc(Cl)cc2)n1C, which Potency is on record?
**A.** inconclusive: 79.4 µM [inhibitor, partial curve, poor fit]

**Q.** How did the “activity change, negative = inhibition” value turn out when COc1ccc(CNS(=O)(=O)CCNCc2ccccc2OC)cc1 was run?
**A.** inactive: 1.9%

**Q.** Which “activity change, negative = inhibition” value does the source give for Cc1nc(-c2c3n(c(=O)n(CC(=O)Nc4ccccc4Cl)c2=O)CCCCC3)no1 here?
**A.** inactive: 29.3%

**Q.** With CCOC(=O)N1CCN(c2c(Nc3ccc4c(c3)OCCO4)c(=O)c2=O)CC1 as the compound, how does the Potency read?
**A.** inconclusive: 100 µM [inhibitor, single point]

**Q.** With CN1CCCN(C(=O)CNC(=O)c2ccccc2F)CC1 as the compound, how does the “activity change, negative = inhibition” value read?
**A.** inactive: -0.329%

**Q.** How did the Potency turn out when COc1ccc(OC(C)C(=O)N(C)Cc2nc(-c3ccc(C)cc3)no2)cc1 (configuration not stated) was run?
**A.** inconclusive: 100 µM [inhibitor, partial curve, poor fit]

**Q.** With O=C(c1cn(-c2ccccc2)nc1-c1ccccc1)N1CCN(c2ccccn2)CC1 as the compound, how does the “activity change, negative = inhibition” value read?
**A.** inactive: -9.87%

**Q.** With CCOc1cc(C(=S)N2CCC(O)CC2)ccc1OS(=O)(=O)c1ccc(Br)cc1 as the compound, how does the Potency read?
**A.** inconclusive: 100 µM [inhibitor, single point]

**Q.** With Cc1ccc(S(=O)(=O)Nc2cnc3ccccc3c2)c(C)c1C as the compound, how does the Potency read?
**A.** inconclusive: 44.7 µM [inhibitor, partial curve, poor fit]

**Q.** How did the “activity change, negative = inhibition” value turn out when O=C(CSc1nnnn1-c1ccc2c(c1)OCO2)NCc1ccccc1 was run?
**A.** inactive: -2.45%

**Q.** N=c1c(S(=O)(=O)c2ccc(Cl)cc2)cc2c(=O)n3ccccc3nc2n1Cc1ccco1 was tested. Which Potency did it give?
**A.** inconclusive: 10 µM [inhibitor, partial curve, poor fit]

**Q.** With Cc1ccc(/C=C/C(=O)Nc2ccc(N(C)C)cc2)o1 as the compound, how does the Potency read?
**A.** inconclusive: 50.1 µM [inhibitor, partial curve, poor fit]

**Q.** How did the Potency turn out when COc1ccc(CNC(=O)c2ccc(NS(=O)(=O)c3c(C)noc3C)cc2)cc1 was run?
**A.** inconclusive: 39.8 µM [inhibitor, single point]

**Q.** With CCN1CCN(c2ccc(S(=O)(=O)N3CCCCC3)cc2NC(=O)COc2ccc(F)cc2Cl)CC1 as the compound, how does the Potency read?
**A.** inconclusive: 44.7 µM [inhibitor, partial curve, poor fit]

**Q.** How did the “activity change, negative = inhibition” value turn out when COC(=O)c1ccc(Cl)c(S(=O)(=O)N2CCCC2)c1 was run?
**A.** inactive: -5.06%

**Q.** With CCC(=O)c1ccc(OC)c(OC)c1O as the compound, how does the Potency read?
**A.** inconclusive: 31.6 µM [inhibitor, partial curve, poor fit]

**Q.** With Cc1ccc(C)c2sc(N3CCN(C(=O)c4ccco4)CC3)nc12 as the compound, how does the Potency read?
**A.** inconclusive: 50.1 µM [inhibitor, partial curve, poor fit]

**Q.** With O=C(COC(=O)c1cnc2ccccc2n1)NC12CC3CC(CC(C3)C1)C2 as the compound, how does the Potency read?
**A.** inconclusive: 126 µM [inhibitor, single point]

**Q.** Cc1cccc(NC(=O)C(C#N)C(=O)CC(C)C)c1 (configuration not stated) was tested. Which Potency did it give?
**A.** inconclusive: 100 µM [inhibitor, single point]

**Q.** CCN(c1ccccc1)c1nnc(NC(=O)Nc2ccccc2)s1 was tested. Which “activity change, negative = inhibition” value did it give?
**A.** inactive: -18%

**Q.** With CCc1ccccc1NC(=O)CSc1nc2n[nH]c(C)c2c(=N)n1-c1cccc(OC)c1 as the compound, how does the “activity change, negative = inhibition” value read?
**A.** inactive: -8.36%

**Q.** For S=C(Nc1ccc(Cl)c(Cl)c1)NN1CCOCC1, which Potency is on record?
**A.** inconclusive: 28.2 µM [inhibitor, partial curve]

**Q.** With COc1ccc(CC(N)c2csc(NC(=O)Nc3ccccc3Cc3ccccc3)n2)cc1 (configuration not stated) as the compound, how does the Potency read?
**A.** inconclusive: 56.2 µM [inhibitor, partial curve, poor fit]

**Q.** How did the Potency turn out when Cc1[nH]nc2c1C(c1ccc(Cl)c(Cl)c1)C1=C(COC1=O)N2 (configuration not stated) was run?
**A.** inconclusive: 35.5 µM [inhibitor, partial curve, poor fit]

**Q.** Which Potency does the source give for CC(=O)c1sc(NC(=O)C2CC(=O)N(Cc3ccco3)C2)nc1-c1ccccc1 (configuration not stated) here?
**A.** inconclusive: 100 µM [inhibitor, partial curve, poor fit]

**Q.** With Cn1cccc1C(=O)N1CCC2(CCCN(c3ccccc3)C2)CC1 as the compound, how does the Potency read?
**A.** inconclusive: 35.5 µM [inhibitor, single point]

**Q.** COC[C@H]1CCCN1C(=O)C[C@@H]1O[C@H](CNC(=O)c2ccccc2)[C@@H](O)[C@H]1O was tested. Which Potency did it give?
**A.** inconclusive: 25.1 µM [inhibitor, full curve]

**Q.** Which “activity change, negative = inhibition” value does the source give for CCCCCCCCCCCCCCCC(=O)Nc1ccccc1 here?
**A.** inactive: -0.797%

**Q.** Which “activity change, negative = inhibition” value does the source give for COc1ccc(C=O)cc1COC(=O)COc1ccc(Cl)cc1Cl here?
**A.** inactive: 15.1%

**Q.** For Cc1c(C(=O)NN2CCCCC2)nn(-c2ccc(Cl)cc2Cl)c1-c1ccc(Cl)cc1, which Potency is on record?
**A.** inconclusive: 50.1 µM [inhibitor, partial curve, poor fit] and active: 24.3 µM

**Q.** Which Potency does the source give for COc1ccc(NC(=O)CN(C)C(=O)c2cc(-c3ccccc3)nc3ccccc23)cc1 here?
**A.** inconclusive: 126 µM [inhibitor, partial curve, poor fit]

**Q.** With O=C(c1cc(COc2ccc(F)cc2F)on1)N1CCCC(c2ccccc2)C1 (configuration not stated) as the compound, how does the “activity change, negative = inhibition” value read?
**A.** inactive: -4.08%

**Q.** Cc1cccc(CNc2ncnc3ccc(-c4ccoc4)cc23)c1 was tested. Which Potency did it give?
**A.** inconclusive: 35.5 µM [inhibitor, partial curve, poor fit]

**Q.** For CC(C)(C)S(=O)N1Cc2cc(C(=O)N3CCc4ccccc4C3)nc(-c3cccc(-c4cccnc4)c3)c2[C@@H]1CCO (some centres not stated), which Potency is on record?
**A.** inconclusive: 31.6 µM [inhibitor, full curve, poor fit]

**Q.** For CCn1c(/C(C#N)=N/O)nc2ccccc21, which Potency is on record?
**A.** inconclusive: 35.5 µM [inhibitor, partial curve]

**Q.** How did the Potency turn out when O=C(Nc1ccccc1)c1nc[nH]c1C(=O)NCCN(CCNC(=O)c1[nH]cnc1C(=O)Nc1ccccc1)CCNC(=O)c1[nH]cnc1C(=O)Nc1ccccc1 was run?
**A.** inconclusive: 31.6 µM [inhibitor, single point]
